In paper PMC5874067:
No constants are given. Whether binding was seen depends on the method and setting. In cells and extracts the contact can be indirect. Some binding calls cover weakened binding; strength is not graded here. Sequences can lack the tags named with a protein.

T1: EGFP-BBS9 (human) (UniProt Q3SYG4)
T1 sequence: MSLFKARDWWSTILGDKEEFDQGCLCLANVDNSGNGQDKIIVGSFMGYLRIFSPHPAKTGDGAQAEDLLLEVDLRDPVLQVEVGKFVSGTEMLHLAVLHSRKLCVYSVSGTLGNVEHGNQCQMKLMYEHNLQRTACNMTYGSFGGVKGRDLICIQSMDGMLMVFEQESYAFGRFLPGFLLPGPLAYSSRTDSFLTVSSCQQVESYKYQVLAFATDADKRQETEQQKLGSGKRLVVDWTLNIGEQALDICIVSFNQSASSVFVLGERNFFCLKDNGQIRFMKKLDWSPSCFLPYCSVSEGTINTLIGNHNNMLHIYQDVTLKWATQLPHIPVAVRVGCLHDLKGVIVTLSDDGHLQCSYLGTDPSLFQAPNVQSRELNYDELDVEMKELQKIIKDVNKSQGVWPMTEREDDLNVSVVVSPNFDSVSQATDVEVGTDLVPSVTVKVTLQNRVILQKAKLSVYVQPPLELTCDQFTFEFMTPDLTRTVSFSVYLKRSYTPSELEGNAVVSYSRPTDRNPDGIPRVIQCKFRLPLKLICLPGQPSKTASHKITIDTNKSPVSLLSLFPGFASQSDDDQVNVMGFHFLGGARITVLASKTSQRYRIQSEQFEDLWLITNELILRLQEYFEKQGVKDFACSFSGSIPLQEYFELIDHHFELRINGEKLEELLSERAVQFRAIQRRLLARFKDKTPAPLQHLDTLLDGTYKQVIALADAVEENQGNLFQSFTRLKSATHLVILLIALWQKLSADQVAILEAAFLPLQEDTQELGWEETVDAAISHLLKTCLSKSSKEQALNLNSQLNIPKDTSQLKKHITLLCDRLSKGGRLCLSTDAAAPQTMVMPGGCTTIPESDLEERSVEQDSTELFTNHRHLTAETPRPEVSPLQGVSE

T2: EGFP-fused ARL6∆N15(Q73L) (UniProt Q9H0F7)
T2 sequence: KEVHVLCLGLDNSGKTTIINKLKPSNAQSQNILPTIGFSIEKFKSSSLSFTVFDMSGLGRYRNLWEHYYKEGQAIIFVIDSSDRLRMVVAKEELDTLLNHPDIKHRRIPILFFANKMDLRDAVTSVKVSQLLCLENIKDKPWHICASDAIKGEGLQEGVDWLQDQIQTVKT

T3: EGFP-BBS7 (human) (UniProt Q8IWZ6)
T3 sequence: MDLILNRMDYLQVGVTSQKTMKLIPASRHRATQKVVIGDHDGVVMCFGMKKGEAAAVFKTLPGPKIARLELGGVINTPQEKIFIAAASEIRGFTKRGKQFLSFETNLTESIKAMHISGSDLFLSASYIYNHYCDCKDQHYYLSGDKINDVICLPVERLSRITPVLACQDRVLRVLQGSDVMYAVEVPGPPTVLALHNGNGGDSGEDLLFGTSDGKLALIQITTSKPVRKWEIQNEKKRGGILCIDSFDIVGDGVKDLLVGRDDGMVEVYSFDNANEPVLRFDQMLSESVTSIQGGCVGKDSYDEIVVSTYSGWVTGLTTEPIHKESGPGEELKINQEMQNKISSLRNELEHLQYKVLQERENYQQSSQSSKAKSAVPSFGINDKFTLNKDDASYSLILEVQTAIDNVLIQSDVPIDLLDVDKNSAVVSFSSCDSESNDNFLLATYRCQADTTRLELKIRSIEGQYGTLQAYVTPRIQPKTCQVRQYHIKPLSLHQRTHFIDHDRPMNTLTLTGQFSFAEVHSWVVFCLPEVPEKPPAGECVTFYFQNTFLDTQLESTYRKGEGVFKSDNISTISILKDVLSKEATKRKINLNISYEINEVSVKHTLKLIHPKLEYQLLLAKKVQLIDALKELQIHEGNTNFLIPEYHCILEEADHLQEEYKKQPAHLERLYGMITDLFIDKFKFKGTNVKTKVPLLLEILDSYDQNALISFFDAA


Assays:
Assay in all cases: co-IP; VIP assay: lysates of HEK293T cells co-expressing an EGFP-fused and an mChe- or tRFP-fused protein (HMDEKN buffer: 10 mM HEPES pH 7.4, 5 mM MgSO4, 1 mM DTT, 0.5 mM EDTA, 25 mM KCl, 0.5% NP-40); EGFP fusion precipitated with GST-anti-GFP nanobody on glutathione-Sepharose beads; beads read by fluorescence microscopy and, for some pairs, by immunoblotting
EGFP-BBS9 (human) = molecular target: T1, EGFP-BBS9 (human)
[1] = molecular target: T2, EGFP-fused ARL6∆N15(Q73L)
EGFP-BBS7 (human) = molecular target: T3, EGFP-BBS7 (human)

binding (EGFP-BBS9 (human)) | binding [1] | binding (EGFP-BBS7 (human)) | Binder
binds | binds | – | mChe-fused BBS1(WT) (protein, UniProt Q8NFJ9 1-593) MAAASSSDSDACGAESNEANSKWLDAHYDPMANIHTFSACLALADLHGDGEYKLVVGDLGPGGQQPRLKVLKGPLVMTESPLPALPAAAATFLMEQHEPRTPALALASGPCVYVYKNLRPYFKFSLPQLPPNPLEQDLWNQAKEDRIDPLTLKEMLESIRETAEEPLSIQSLRFLQLELSEMEAFVNQHKSNSIKRQTVITTMTTLKKNLADEDAVSCLVLGTENKELLVLDPEAFTILAKMSLPSVPVFLEVSGQFDVEFRLAAACRNGNIYILRRDSKHPKYCIELSAQPVGLIRVHKVLVVGSTQDSLHGFTHKGKKLWTVQMPAAILTMNLLEQHSRGLQAVMAGLANGEVRIYRDKALLNVIHTPDAVTSLCFGRYGREDNTLIMTTRGGGLIIKILKRTAVFVEGGSEVGPPPAQAMKLNVPRKTRLYVDQTLREREAGTAMHRAFQTDLYLLRLRAARAYLQALESSLSPLSTTAREPLKLHAVVQGLGPTFKLTLHLQNTSTTRPVLGLLVCFLYNEALYSLPRAFFKVPLLVPGLNYPLETFVESLSNKGISDIIKVLVLREGQSAPLLSAHVNMPGSEGLAAA
– | no binding | binds | tRFP-fused BBS1(R404A) (protein, UniProt Q8NFJ9 1-593) MAAASSSDSDACGAESNEANSKWLDAHYDPMANIHTFSACLALADLHGDGEYKLVVGDLGPGGQQPRLKVLKGPLVMTESPLPALPAAAATFLMEQHEPRTPALALASGPCVYVYKNLRPYFKFSLPQLPPNPLEQDLWNQAKEDRIDPLTLKEMLESIRETAEEPLSIQSLRFLQLELSEMEAFVNQHKSNSIKRQTVITTMTTLKKNLADEDAVSCLVLGTENKELLVLDPEAFTILAKMSLPSVPVFLEVSGQFDVEFRLAAACRNGNIYILRRDSKHPKYCIELSAQPVGLIRVHKVLVVGSTQDSLHGFTHKGKKLWTVQMPAAILTMNLLEQHSRGLQAVMAGLANGEVRIYRDKALLNVIHTPDAVTSLCFGRYGREDNTLIMTTRGGGLIIKILKATAVFVEGGSEVGPPPAQAMKLNVPRKTRLYVDQTLREREAGTAMHRAFQTDLYLLRLRAARAYLQALESSLSPLSTTAREPLKLHAVVQGLGPTFKLTLHLQNTSTTRPVLGLLVCFLYNEALYSLPRAFFKVPLLVPGLNYPLETFVESLSNKGISDIIKVLVLREGQSAPLLSAHVNMPGSEGLAAA
– | no binding | binds | tRFP-fused BBS1(I399E) (protein, UniProt Q8NFJ9 1-593) MAAASSSDSDACGAESNEANSKWLDAHYDPMANIHTFSACLALADLHGDGEYKLVVGDLGPGGQQPRLKVLKGPLVMTESPLPALPAAAATFLMEQHEPRTPALALASGPCVYVYKNLRPYFKFSLPQLPPNPLEQDLWNQAKEDRIDPLTLKEMLESIRETAEEPLSIQSLRFLQLELSEMEAFVNQHKSNSIKRQTVITTMTTLKKNLADEDAVSCLVLGTENKELLVLDPEAFTILAKMSLPSVPVFLEVSGQFDVEFRLAAACRNGNIYILRRDSKHPKYCIELSAQPVGLIRVHKVLVVGSTQDSLHGFTHKGKKLWTVQMPAAILTMNLLEQHSRGLQAVMAGLANGEVRIYRDKALLNVIHTPDAVTSLCFGRYGREDNTLIMTTRGGGLIEKILKRTAVFVEGGSEVGPPPAQAMKLNVPRKTRLYVDQTLREREAGTAMHRAFQTDLYLLRLRAARAYLQALESSLSPLSTTAREPLKLHAVVQGLGPTFKLTLHLQNTSTTRPVLGLLVCFLYNEALYSLPRAFFKVPLLVPGLNYPLETFVESLSNKGISDIIKVLVLREGQSAPLLSAHVNMPGSEGLAAA
– | binds | binds | tRFP-fused BBS1(1–575) (domain or fragment, UniProt Q8NFJ9 1-575) MAAASSSDSDACGAESNEANSKWLDAHYDPMANIHTFSACLALADLHGDGEYKLVVGDLGPGGQQPRLKVLKGPLVMTESPLPALPAAAATFLMEQHEPRTPALALASGPCVYVYKNLRPYFKFSLPQLPPNPLEQDLWNQAKEDRIDPLTLKEMLESIRETAEEPLSIQSLRFLQLELSEMEAFVNQHKSNSIKRQTVITTMTTLKKNLADEDAVSCLVLGTENKELLVLDPEAFTILAKMSLPSVPVFLEVSGQFDVEFRLAAACRNGNIYILRRDSKHPKYCIELSAQPVGLIRVHKVLVVGSTQDSLHGFTHKGKKLWTVQMPAAILTMNLLEQHSRGLQAVMAGLANGEVRIYRDKALLNVIHTPDAVTSLCFGRYGREDNTLIMTTRGGGLIIKILKRTAVFVEGGSEVGPPPAQAMKLNVPRKTRLYVDQTLREREAGTAMHRAFQTDLYLLRLRAARAYLQALESSLSPLSTTAREPLKLHAVVQGLGPTFKLTLHLQNTSTTRPVLGLLVCFLYNEALYSLPRAFFKVPLLVPGLNYPLETFVESLSNKGISDIIKVLVLREGQSA
no binding | – | – | mChe-fused BBS1(1–575) (domain or fragment, UniProt Q8NFJ9 1-575) MAAASSSDSDACGAESNEANSKWLDAHYDPMANIHTFSACLALADLHGDGEYKLVVGDLGPGGQQPRLKVLKGPLVMTESPLPALPAAAATFLMEQHEPRTPALALASGPCVYVYKNLRPYFKFSLPQLPPNPLEQDLWNQAKEDRIDPLTLKEMLESIRETAEEPLSIQSLRFLQLELSEMEAFVNQHKSNSIKRQTVITTMTTLKKNLADEDAVSCLVLGTENKELLVLDPEAFTILAKMSLPSVPVFLEVSGQFDVEFRLAAACRNGNIYILRRDSKHPKYCIELSAQPVGLIRVHKVLVVGSTQDSLHGFTHKGKKLWTVQMPAAILTMNLLEQHSRGLQAVMAGLANGEVRIYRDKALLNVIHTPDAVTSLCFGRYGREDNTLIMTTRGGGLIIKILKRTAVFVEGGSEVGPPPAQAMKLNVPRKTRLYVDQTLREREAGTAMHRAFQTDLYLLRLRAARAYLQALESSLSPLSTTAREPLKLHAVVQGLGPTFKLTLHLQNTSTTRPVLGLLVCFLYNEALYSLPRAFFKVPLLVPGLNYPLETFVESLSNKGISDIIKVLVLREGQSA
